The reference is the same well before dosing, and untreated signal decays as well.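 Fibroblast labels denote human fibroblasts, mainly primary ones from uterus (C12385, HUF), lung (H6013), bone (Hs27A), adrenal (HADF) and skin (WS1), plus mammary HMF and breast cancer-associated Hs343T. Cancer cells are basal-like or mesenchymal-like triple-negative breast cancer lines. A hit is a response shift exceeding 3x replicate standard deviation. The tissue of the other fibroblasts is not given here.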
Test system: Hs578T
Experiment: relative JC-1 red fluorescence (viability) vs pre-drug, coculture with fibroblast (fraction); higher = more viable cancer cells
Protocol: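 JC-1 labelled TNBC cells cocultured 1:1 (1,500 cells each) with CellTrace Violet stained primary or stromal fibroblasts in 384-well plates in FluoroBrite medium, treated with one of 42 anticancer drugs at 0.1, 1, 10 or 100 uM. JC-1 red fluorescence (mitochondrial integrity in cancer cells only) was read by plate reader every 8 h for 72 h. Values are normalised to each well's pre-drug value. The stock of one drug was tenfold lower, so its dose labels may be too high.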

O=C(O)C1(C(=O)O)CCC1.[NH2-].[NH2-].[Pt+2] [Carboplatin]
relative JC-1 red fluorescence
Settings	8 h	16 h	24 h	32 h	40 h	48 h	56 h	64 h	72 h
0.1 µM	0.915	0.812	0.754	0.7112	0.65	0.6	0.562	0.516	0.491
1 µM	0.887	0.779	0.717	0.6707	0.6049	0.558	0.535	0.492	0.467

relative JC-1 red fluorescence
Settings	8 h	16 h	24 h	32 h	40 h	48 h	56 h	64 h	72 h
0.1 µM, coculture fibroblast: C12385	0.8367	0.742	0.686	0.585	0.516	0.478	0.45	0.435	0.434
0.1 µM, coculture fibroblast: H6013	0.885	0.804	0.761	0.7362	0.7065	0.69633	0.6775	0.6764	0.6527
0.1 µM, coculture fibroblast: H6019	0.799	0.69	0.697	0.6194	0.598	0.585	0.559	0.544	0.517
0.1 µM, coculture fibroblast: H6076	0.878	0.803	0.769	0.772	0.739	0.759	0.76	0.768	0.782
0.1 µM, coculture fibroblast: H6231	0.908	0.813	0.73837	0.702	0.641	0.612	0.566	0.542	0.526
0.1 µM, coculture fibroblast: HADF	0.92	0.838	0.769	0.696	0.642	0.597	0.556	0.541	0.505
0.1 µM, coculture fibroblast: HCFa	0.868	0.776	0.711	0.667	0.601	0.569	0.536	0.522	0.488
0.1 µM, coculture fibroblast: HCPF	0.912	0.8	0.736	0.709	0.648	0.623	0.599	0.567	0.558
0.1 µM, coculture fibroblast: HHSteC	0.893	0.788	0.724	0.675	0.609	0.574	0.546	0.524	0.491
0.1 µM, coculture fibroblast: HMF	0.844	0.781	0.7328	0.7318	0.689	0.667	0.634	0.62	0.612
0.1 µM, coculture fibroblast: HPFa	0.9075	0.8416	0.744	0.666	0.611	0.569	0.521	0.491	0.447
0.1 µM, coculture fibroblast: HUF	0.849	0.753	0.716	0.612	0.562	0.531	0.501	0.501	0.498
0.1 µM, coculture fibroblast: Hs27A	0.8775	0.82	0.796	0.748	0.687	0.672	0.64	0.628	0.582
0.1 µM, coculture fibroblast: Hs343T	0.87	0.78	0.753	0.7549	0.7069	0.7084	0.683	0.6822	0.6928
0.1 µM, coculture fibroblast: WS1	0.83	0.74	0.681	0.59	0.5427	0.528	0.503	0.509	0.507
1 µM, coculture fibroblast: C12385	0.771	0.701	0.647	0.558	0.494	0.46	0.432	0.428	0.423
1 µM, coculture fibroblast: H6013	0.8385	0.806	0.768	0.741	0.72	0.705	0.685	0.68	0.65
1 µM, coculture fibroblast: H6019	0.792	0.726	0.716	0.627	0.584	0.547	0.508	0.483	0.444
1 µM, coculture fibroblast: H6076	0.882	0.8143	0.7622	0.728	0.677	0.668	0.6566	0.6542	0.651
1 µM, coculture fibroblast: H6231	0.87325	0.778	0.7133	0.6622	0.59	0.558	0.516	0.495	0.484
1 µM, coculture fibroblast: HADF	0.872	0.794	0.728	0.677	0.652	0.641	0.61	0.606	0.587
1 µM, coculture fibroblast: HCFa	0.8362	0.7897	0.728	0.681	0.632	0.606	0.564	0.547	0.502
1 µM, coculture fibroblast: HCPF	0.91	0.825	0.762	0.716	0.653	0.627	0.605	0.565	0.5487
1 µM, coculture fibroblast: HHSteC	0.853	0.797	0.74	0.687	0.636	0.6013	0.5794	0.561	0.521
1 µM, coculture fibroblast: HMF	0.866	0.772	0.697	0.668	0.608	0.575	0.538	0.513	0.5
1 µM, coculture fibroblast: HPFa	0.8891	0.7923	0.736	0.68	0.641	0.601	0.555	0.531	0.485
1 µM, coculture fibroblast: HUF	0.8621	0.7251	0.6833	0.576	0.515	0.479	0.452	0.438	0.432
1 µM, coculture fibroblast: Hs27A	0.8467	0.782	0.719	0.6608	0.592	0.5657	0.5212	0.5101	0.4643
1 µM, coculture fibroblast: Hs343T	0.875	0.775	0.714	0.683	0.611	0.583	0.545	0.527	0.52
1 µM, coculture fibroblast: WS1	0.779	0.685	0.63	0.522	0.454	0.43	0.4	0.388	0.3816

Source: the supplement of paper PMC6078165
